Results are given in words; binding and its absence hold for the method and conditions named. Binding seen in cells or lysates may run through a third protein. Some binding calls cover weakened binding; strength is not graded here.
Biological target: HRas in H-Ras^V12 oncogene-transformed cells (PH3MT) (UniProt P01112)
Assay: co-immunoprecipitation with anti-HRas from PH3MT-SC and PH3MT-2A3 lysates, Western blot

Sequences of proteins named here, by UniProt entry; tags and fusion partners are left off. Residues count along the entry.
UniProt Q13009, residues 2-1591: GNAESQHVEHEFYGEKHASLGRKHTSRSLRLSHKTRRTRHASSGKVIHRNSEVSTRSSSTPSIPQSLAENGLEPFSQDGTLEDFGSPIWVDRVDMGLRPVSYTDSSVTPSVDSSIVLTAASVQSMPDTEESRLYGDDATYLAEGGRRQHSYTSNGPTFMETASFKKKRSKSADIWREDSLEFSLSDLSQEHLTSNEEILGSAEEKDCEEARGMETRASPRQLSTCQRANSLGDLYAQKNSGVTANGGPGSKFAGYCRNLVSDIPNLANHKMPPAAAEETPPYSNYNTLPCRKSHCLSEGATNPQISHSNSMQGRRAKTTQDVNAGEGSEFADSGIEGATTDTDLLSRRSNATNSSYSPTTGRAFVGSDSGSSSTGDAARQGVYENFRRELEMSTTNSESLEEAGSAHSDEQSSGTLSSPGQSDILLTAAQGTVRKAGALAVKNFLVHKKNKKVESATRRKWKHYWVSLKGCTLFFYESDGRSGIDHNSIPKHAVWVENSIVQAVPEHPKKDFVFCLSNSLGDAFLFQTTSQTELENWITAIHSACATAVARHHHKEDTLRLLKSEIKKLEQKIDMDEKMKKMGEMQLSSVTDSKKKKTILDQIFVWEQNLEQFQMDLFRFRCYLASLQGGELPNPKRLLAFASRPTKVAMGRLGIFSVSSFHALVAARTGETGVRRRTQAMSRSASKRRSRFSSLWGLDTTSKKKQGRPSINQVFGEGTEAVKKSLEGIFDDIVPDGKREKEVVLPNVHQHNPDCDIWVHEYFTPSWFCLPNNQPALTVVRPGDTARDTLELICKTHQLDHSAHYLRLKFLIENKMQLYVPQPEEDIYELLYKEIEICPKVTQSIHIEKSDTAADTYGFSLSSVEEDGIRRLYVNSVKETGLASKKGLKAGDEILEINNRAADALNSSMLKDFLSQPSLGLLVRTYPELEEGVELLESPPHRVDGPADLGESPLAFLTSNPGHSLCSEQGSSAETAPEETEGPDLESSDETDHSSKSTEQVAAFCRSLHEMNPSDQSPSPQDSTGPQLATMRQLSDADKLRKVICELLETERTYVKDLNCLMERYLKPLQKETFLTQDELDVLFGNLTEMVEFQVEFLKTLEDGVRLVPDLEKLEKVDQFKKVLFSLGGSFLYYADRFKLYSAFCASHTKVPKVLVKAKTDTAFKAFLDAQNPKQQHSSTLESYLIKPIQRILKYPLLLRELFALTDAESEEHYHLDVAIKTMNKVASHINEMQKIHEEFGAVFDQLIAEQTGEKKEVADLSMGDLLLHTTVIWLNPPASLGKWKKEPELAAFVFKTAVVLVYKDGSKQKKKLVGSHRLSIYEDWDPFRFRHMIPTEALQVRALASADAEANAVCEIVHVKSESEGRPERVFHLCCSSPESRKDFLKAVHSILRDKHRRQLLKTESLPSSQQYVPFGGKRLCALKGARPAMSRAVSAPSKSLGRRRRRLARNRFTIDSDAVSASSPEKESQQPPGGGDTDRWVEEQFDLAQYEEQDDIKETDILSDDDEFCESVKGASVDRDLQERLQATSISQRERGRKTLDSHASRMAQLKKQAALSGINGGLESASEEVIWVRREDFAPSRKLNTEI

Tiam1 (endogenous, in PH3MT cell lysates) (from UniProt Q13009 2-1591)
binding: binds

Source: US20070066522A1
